Test results as given in PubChem BioAssay AID588590 (National Center for Advancing Translational Sciences (NCATS), 2011).
Hit rate of the full screen: of about 390,000 compounds, about 4,000 (1%) were called active. The inconclusive results got no clear call from the source; some entries with a clear call stand among them for comparison. Calls follow the shape of the dose curve; as a rule, active = well fitted inhibition curve with a large enough effect; inconclusive = small, poorly fitted or top-dose-only effect, or another doubt; inactive = no such curve, though single readings can be large or run the other way. Where the call is inconclusive, the potency comes from a doubtful curve fit.

The chains behind the UniProt entries cited, without tags or fusion partners. Where a name states a change or a piece, a line headed by the entry shows the natural chain unless it says otherwise.
UniProt Q9UNA4: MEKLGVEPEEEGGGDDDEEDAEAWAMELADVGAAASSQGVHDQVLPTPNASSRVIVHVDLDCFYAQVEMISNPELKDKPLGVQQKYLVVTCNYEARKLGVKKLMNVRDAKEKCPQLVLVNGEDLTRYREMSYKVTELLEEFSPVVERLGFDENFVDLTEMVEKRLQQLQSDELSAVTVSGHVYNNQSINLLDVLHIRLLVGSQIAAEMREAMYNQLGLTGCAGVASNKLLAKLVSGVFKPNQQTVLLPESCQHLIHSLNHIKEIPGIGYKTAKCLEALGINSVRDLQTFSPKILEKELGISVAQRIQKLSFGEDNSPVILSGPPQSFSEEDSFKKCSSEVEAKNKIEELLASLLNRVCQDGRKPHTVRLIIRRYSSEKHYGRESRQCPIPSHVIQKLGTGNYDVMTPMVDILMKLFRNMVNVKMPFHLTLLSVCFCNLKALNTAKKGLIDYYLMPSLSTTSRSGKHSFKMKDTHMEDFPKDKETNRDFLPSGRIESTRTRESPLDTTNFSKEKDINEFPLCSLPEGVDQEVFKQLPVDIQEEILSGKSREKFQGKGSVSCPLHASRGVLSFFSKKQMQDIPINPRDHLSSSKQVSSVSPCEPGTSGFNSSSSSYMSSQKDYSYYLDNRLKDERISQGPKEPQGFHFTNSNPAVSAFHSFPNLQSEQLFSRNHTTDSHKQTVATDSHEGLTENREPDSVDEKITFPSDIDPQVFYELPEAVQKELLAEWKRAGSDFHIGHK

The compounds below were run against DNA polymerase iota (Homo sapiens) (UniProt Q9UNA4) (assay: qHTS for Inhibitors of Polymerase Iota). Details: Pol iota fluorescent replication assay, 10 min; series mostly up to 115 µM.
Summary of the method: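 Pol iota at 10 nM preincubated 15 min with compounds at room temperature; reaction started with fluorescent substrate, 50 nM final. Fluorescence read kinetically at 0 and 10 min; buffer-only wells as negative control.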
Potency is read from the fitted curve at half-maximal effect.

Structure (SMILES)	Potency
Nc1ccc2c3c(cccc13)C(=O)NC2=O	inconclusive: 31.6 µM [inhibitor, partial curve]
O=c1cc(COc2ccc(Cl)c(Cl)c2)nc2sccn12	inconclusive: 14.1 µM [inhibitor, full curve, poor fit]
CC1=C(C(=O)Nc2cccc(Cl)c2C)C2(CCCCCC2)OC1=O	inactive
CC1CCN(S(=O)(=O)c2ccc3c(c2)CCN3)CC1	inactive
O=C(Cn1c(SCc2ccccc2F)nc2ccncc21)Nc1ccccc1C(F)(F)F	inconclusive: 100 µM [inhibitor, single point]
N=C(N)SCP(=O)(c1ccccc1)c1ccccc1	inconclusive: 31.6 µM [inhibitor, single point]
O=C(CNC(=O)Cc1ccccc1)NCC(=O)OCC(=O)c1ccc(F)cc1	inactive
CCOC(=O)[C@H]1[C@H]2COc3ccccc3[C@@H]2N2C(=O)c3cc(Cl)ccc3NC(=O)[C@@]12C	inconclusive: 39.8 µM [inhibitor, single point]
CCOc1cc(C(=O)NCCc2sc(-c3ccc(F)cc3)nc2C)cc(OCC)c1OCC	inactive
N#C/C(=C/c1ccc(O)c(O)c1)c1nc2ccccc2[nH]1	inconclusive: 11.2 µM [inhibitor, partial curve]
Cc1cc(C)c2c(=O)n(CC(=O)NCCCN3CCN(c4ccccc4F)CC3)sc2n1	inactive
CC(NC(=S)NC(=O)c1ccccc1)c1ccccc1 (stereo not drawn)	inconclusive: 79.4 µM [inhibitor, single point]
CCOc1ccc(NC(=O)CSc2ccc(-c3ccco3)nn2)cc1	inconclusive: 15.8 µM [inhibitor, full curve, poor fit]
COc1cc2c(cc1OC)n(Cc1cccc(C(F)(F)F)c1)c(=O)n1nc(-c3ccccc3)nc21	inactive
O=C(/C=C/c1ccc(Cl)cc1Cl)c1ccc[nH]1	inactive
CCOC(=O)c1ccc(NC(=O)N2CCc3ccccc32)cc1	inconclusive: 50.1 µM [inhibitor, full curve]
Cc1ccc(C2=NOC(=O)/C2=C\c2ccccc2)cc1	inconclusive: 12.6 µM [inhibitor, partial curve]
CCOc1ccc(N(C)S(=O)(=O)c2ccc3c(c2)CCCN3C(C)=O)cc1	inactive
CCCSc1nnc(NC(=O)c2sc3nc(-c4cccs4)ccc3c2N)s1	inconclusive: 20 µM [inhibitor, full curve, poor fit]
CCc1ccc(CN2CCC(n3nccc3NC(=O)c3ccccc3C)CC2)cc1	inconclusive: 89.1 µM [inhibitor, single point]
O=C(Nc1ccc(Cl)c(Cl)c1)N1CCSC1c1ccco1 (stereo not drawn)	inconclusive: 11.2 µM [inhibitor, partial curve, poor fit]

Random excerpt: 5 compounds from above.
Structure (SMILES)	Potency
CC1CCN(S(=O)(=O)c2ccc3c(c2)CCN3)CC1	inactive
O=C(/C=C/c1ccc(Cl)cc1Cl)c1ccc[nH]1	inactive
CCCSc1nnc(NC(=O)c2sc3nc(-c4cccs4)ccc3c2N)s1	inconclusive: 20 µM [inhibitor, full curve, poor fit]
CCOC(=O)c1ccc(NC(=O)N2CCc3ccccc32)cc1	inconclusive: 50.1 µM [inhibitor, full curve]
N=C(N)SCP(=O)(c1ccccc1)c1ccccc1	inconclusive: 31.6 µM [inhibitor, single point]

Following part:

Structure (SMILES)	Potency
O=C(CSc1n[nH]c(=O)n1Cc1ccco1)c1ccc(F)cc1	inconclusive: 44.7 µM [inhibitor, partial curve, poor fit]
CC1=C(C(=O)Nc2ccccc2)C(c2ccccn2)n2ncnc2N1 (stereo not drawn)	inactive
O=C(CCCN1C(=O)CCC1=O)Nc1ccccc1F	inconclusive: 39.8 µM [inhibitor, partial curve]
Cc1noc(NS(=O)(=O)c2ccc(NC(=O)CSc3nnc4c(n3)[nH]c3ccccc34)cc2)c1C	inconclusive: 56.2 µM [inhibitor, partial curve, poor fit]
C=CCN1c2ccccc2[C@]23C[C@@H](C(=O)OC)N(C(=O)NCCC)C2=NC(C(=O)OC)=C(C(=O)OC)[C@H]13	inconclusive: 25.1 µM [inhibitor, partial curve, poor fit]
CCN1C(=O)c2cccc3c(N)ccc(c23)C1=O	inconclusive: 31.6 µM [inhibitor, partial curve, poor fit]
O=C(N/N=C/c1cn(CC(=O)N2CCOCC2)c2ccccc12)c1cccnc1	inconclusive: 89.1 µM [inhibitor, partial curve, poor fit]
COc1cc(Nc2nc(SCC(=O)c3ccc(Br)cc3)nc3ccccc23)cc(OC)c1	active: 79.4 µM
CC(=O)N1CCC(C(=O)NCCOc2ccc(C)cc2)CC1	inactive
Cc1ccc(C(=O)/C=C/c2ccccc2[N+](=O)[O-])cc1	inconclusive: 25.1 µM [inhibitor, full curve, poor fit]
N#C/C(=C\c1ccc(-c2ccc(C(=O)O)cc2)o1)C(=O)Nc1ccccc1C(=O)O	inconclusive: 56.2 µM [inhibitor, partial curve, poor fit]
CCOC(=O)c1ccc(NC(=O)Cn2cc3c(n2)CCC(C)C3)cc1 (stereo not drawn)	inconclusive: 12.6 µM [inhibitor, partial curve, poor fit]
COc1ccc(CCNC(=O)C(=O)NCC2OCCN2S(=O)(=O)c2cc(F)ccc2F)cc1OC (stereo not drawn)	inconclusive: 10 µM [inhibitor, partial curve, poor fit]
Cc1c(NC(=O)c2ccc(C(=O)Nc3c(C)n(C)n(-c4ccccc4)c3=O)cc2)c(=O)n(-c2ccccc2)n1C	inactive
COc1ccc(C=C(NC(=O)c2ccccc2)C(=O)O)cc1OC	inactive
O=C(CN1CCN(c2ccc(O)cc2)CC1)Nc1ccc2c(c1)OCCCO2	inconclusive: 50.1 µM [inhibitor, partial curve, poor fit]
Cc1noc(C)c1CSc1ccc(Br)cc1	inconclusive: 89.1 µM [inhibitor, partial curve, poor fit]
COc1ccc(-c2cc(C(F)(F)F)c3c(=O)n(-c4ccccc4)[nH]c3n2)cc1	inconclusive: 89.1 µM [inhibitor, partial curve, poor fit]
Nc1c(C(=O)NCc2ccccc2)c2nc3ccccc3nc2n1-c1ccc2c(c1)OCO2	inconclusive: 89.1 µM [inhibitor, single point]
CC(=O)N1CCc2c(sc(NC(=O)CSc3ccccc3)c2-c2nc3ccccc3s2)C1	inconclusive: 79.4 µM [inhibitor, single point]
Cc1ccc(CNC(=O)C2CC(=O)OC23CCCC3)c(C)c1 (stereo not drawn)	inconclusive: 20 µM [inhibitor, full curve]

Structure (SMILES)	Potency
C#CCOCCOCCOCCNc1nc(N2CCN(C(=O)CCCCCCCCCCNC(=O)[C@H](CCCCN)n3cc(C)nn3)CC2)nc(N2CCN(C(=O)CCCCCCCCCCNC(=O)[C@H](CO)n3cc(CCCSC)nn3)CC2)n1	inconclusive: 39.8 µM [inhibitor, single point]
COC(=O)c1[nH]c(C)c(/C(O)=C2\C(=O)C(=O)N(CCN(C)C)C2c2cc(OC)ccc2OC)c1C (stereo not drawn)	inconclusive: 31.6 µM [inhibitor, full curve, poor fit]
COc1ccc(-c2ccccc2)c2oc(-c3ccco3)cc(=O)c12	inconclusive: 39.8 µM [inhibitor, single point]
Cc1cccc(CNC(=O)CCn2c(=O)c3cccn3c3ccc(F)cc32)c1	inactive
COc1ccc(OC)c(CNC(=O)c2ccc(Sc3ccc(C)cc3)c(N)c2)c1	inconclusive: 79.4 µM [inhibitor, partial curve, poor fit]
Cc1ccccc1NC(=O)CSc1nc2nccnc2c(=O)n1CCc1c[nH]c2ccccc12	inactive
CCC(C)Sc1nc(O)cc(=O)[nH]1 (stereo not drawn)	inconclusive: 112 µM [inhibitor, partial curve, poor fit]
Nc1ccccc1/C=C/c1ccnc2ccccc12	inconclusive: 100 µM [inhibitor, single point]
N#CC1=C(N)Oc2n[nH]c(-c3cccnc3)c2C1c1ccc([N+](=O)[O-])o1 (stereo not drawn)	inconclusive: 12.6 µM [inhibitor, full curve, poor fit]
CC(=C\C(=O)O)/C(=C/c1ccco1)C(=O)O	inconclusive: 44.7 µM [inhibitor, partial curve]
COc1ccc(S(=O)(=O)c2cnc3ccc(Cl)cc3c2N2CCCCC2C)cc1 (stereo not drawn)	inactive
COC(=O)CCCC1=CC2=CC(=O)C(C)(OC(=O)c3cccs3)C(=O)C2=CN1CC1CC1 (stereo not drawn)	inconclusive: 31.6 µM [inhibitor, single point]
CC(C)=CCc1cc(-c2oc3cc(O)cc(O)c3c(=O)c2O)ccc1O	inconclusive: 56.2 µM [inhibitor, partial curve, poor fit]
CN(Cc1ccccc1)S(=O)(=O)c1nnc(NC(=O)c2cccc(Cl)c2)s1	inconclusive: 89.1 µM [inhibitor, single point]
COc1ccc2c(C)c(CC(=O)N3CCN(C(=O)C4COc5ccccc5O4)CC3)c(=O)oc2c1C (stereo not drawn)	inactive
Cc1nc(N2CCN(C(=O)c3ccco3)CC2)c2c3c(sc2n1)CC(C)CC3 (stereo not drawn)	inconclusive: 15.8 µM [inhibitor, full curve]
Cc1cc(-c2ccc(C)c(S(=O)(=O)NC(c3cccs3)C(C)C)c2)on1 (stereo not drawn)	inconclusive: 79.4 µM [inhibitor, partial curve, poor fit]
O=C(COc1ccccc1Cl)NNC(=O)c1ccc2c(=O)n3c(nc2c1)CCC3	inconclusive: 8.91 µM [inhibitor, partial curve, poor fit]
CN(CCOc1ccccc1)C(=O)c1cc(COc2c(F)cccc2F)on1	inactive
COC(=O)CCCC1=CC2=CC(=O)C(C)(OC(=O)c3cccs3)C(=O)C2=CN1CC(C)C (stereo not drawn)	inconclusive: 35.5 µM [inhibitor, partial curve, poor fit]
O=c1[nH]c(Nc2ccccn2)cc2ccccc12	inconclusive: 10 µM [inhibitor, full curve, poor fit]
